Measurements taken from PubChem BioAssay (EPA / NIEHS).
Inconclusive results, whose numbers are uncertain, are shown with a selection of clear calls. Where the call is inconclusive, the potency comes from a doubtful curve fit. Active and inactive are the calls of the source. The calls were made as follows: active = hit-call score of the fitted dose curve at least 0.9, where 1 is the maximum; inconclusive = response in the unintended direction; inactive = score below 0.9.

Read-out: alkyl and aryl transferase (GSTA2), GSTA2 (gene 2939)
Assay: CLD_GSTA2_24hr: CellzDirect (CLD) Gene Expression Assay for alkyl and aryl transferase (GSTA2) at 24 hours (AID 2283693)
Protocol: CLD_24hr is a cell-based, multiplexed-readout assay that uses hepatocyte, a human liver primary cell, with measurements taken at 24 hours after chemical dosing in a 96-well plate.CLD_GSTA2_24hr is one of 16 assay component(s) measured or calculated from the CLD_24hr assay. It is designed to make measurements of mRNA induction, a form of inducible reporter, as detected with chemiluminescence signals by Quantitative Nuclease Protection Assay (qNPA) technology.Data from the assay component CLD_GSTA2_24hr was analyzed at the endpoint, CLD_GSTA2_24hr, in the positive analysis fitting direction relative to DMSO as the negative control and baseline of activity. Using a type of inducible reporter, gain-of-signal activity can be used to understand changes in the reporter gene as they relate to the gene GSTA2. Furthermore, this assay endpoint can be referred to as a primary readout. To generalize the intended target to other relatable targets, this assay endpoint is annotated to the transferase intended target family, where subfamily is alkyl and aryl transferase.
Human hepatocyte cultures were treated daily for two consecutive days with fresh dosing solutions containing appropriate concentrations of the 320 ToxCast chemicals (chemical identities were blinded to CellzDirect and other ToxCast collaborators), vehicle control (0.2% DMSO), and positive control inducers as summarized in Table 1. Due to the large number of treatment groups and chemicals examined, the ToxCast chemicals were divided into two groups (spanning two independent cultures of hepatocytes from separate donor preparations (Hu778: ToxCast plates 1 and 2; Hu776: ToxCast plates 3 and 4). Each preparation of human hepatocyte cultures was treated with respective vehicle control, medium only control, set of six positive controls/reference chemicals for the five hepatic receptor pathways, and a subset of eight of the ToxCast chemicals (indoxacarb, pyrithiobac-sodium, norflurazon, cyhalofop-butyl, methomyl, thiram, acetochlor, and propiconazole). These replicate data, coupled with internal replicates designed within the blinded ToxCast chemical library, provided additional data to evaluate interindividual differences between hepatocyte preparations and their potential impact on chemical profiles.Cell morphology and integrity were evaluated using phase-contrast microscopy as an indicator of hepatocyte cell health (Tyson & Green, 1987). Cultures for each treatment group (i.e., media, vehicle [0.2% DMSO], positive control inducers [multiple concentrations], and the ToxCast chemicals [multiple concentrations]) were observed and cell morphology was assessed relative to vehicle control cultures at each harvest time point (0, 6, 24, or 48 h). […] Images were evaluated at the conclusion of the study to assess changes in cell integrity and account for the effects of chemical exposure on uncharacteristic changes in concentration-dependent gene expression profiles. The results from these determinations of apparent cytotoxicity were annotated (yes/no) alongside the corresponding qNPA data for reference.At the conclusion of each treatment period, hepatocyte cultures (96-well) were washed with 1 volume of HBSS, lysed by addition of 25 ul ArrayPlate lysis buffer (HTG, Tucson, AZ), and 70 ul/well of Denaturation Oil, denatured by incubation at 95C for 10 min, and frozen at approximately -70C until analysis by nuclease protection assay (qNPA) (Roberts et al., 2007). For qNPA analysis, cell lysates were thawed at 50C for approximately 30 min, qNPA probes were added, and samples were incubated at 95C for 10 min to begin the detection process by denaturing the target RNA, dissociating the duplexes and secondary structure hybridization. At the conclusion of the hybridization period, S1 nuclease reagent was added to each sample to digest all nonprotected nucleotides at 50C for 60-90 min. […]

SMILES	outcome	AC50
CCOC1Oc2ccc(OS(C)(=O)=O)cc2C1(C)C (stereo not given)	inactive	
ClC1C(Cl)C(Cl)C(Cl)C(Cl)C1Cl (stereo not given)		inconclusive: 5.34 µM
CCCCN(CC)c1c([N+](=O)[O-])cc(C(F)(F)F)cc1[N+](=O)[O-]	inactive	
CCOP(=S)(OCC)Oc1ccc([N+](=O)[O-])cc1		inconclusive: 20 µM
CCCC1COC(Cn2cncn2)(c2ccc(Cl)cc2Cl)O1 (stereo not given)		inconclusive: 20 µM
COC(=O)c1ccccc1S(=O)(=O)NC(=O)N(C)c1nc(C)nc(OC)n1	inactive	
CCOc1cc(C(C)(C)C)ccc1C1COC(c2c(F)cccc2F)=N1 (stereo not given)		inconclusive: 20 µM
CC(Oc1cccc(Cl)c1)C(=O)O (stereo not given)		inconclusive: 3.97 µM
O=C(Nc1ccccc1)Nc1ccnc(Cl)c1		inconclusive: 20 µM
COc1cc(OC)nc(Sc2cccc(Cl)c2C(=O)O)n1	inactive	
CC(COc1ccc(Oc2ccccc2)cc1)Oc1ccccn1 (stereo not given)		inconclusive: 20 µM
CCCOc1nn(C(=O)NS(=O)(=O)c2ccccc2C(=O)OC)c(=O)n1C	inactive	
N#CN=C1SCCN1Cc1ccc(Cl)nc1	inactive	
CC(C)=CC1C(C(=O)OCN2C(=O)C3=C(CCCC3)C2=O)C1(C)C (stereo not given)		inconclusive: 0.0174 µM
C#CC(C)(C)NC(=O)c1cc(Cl)cc(Cl)c1		inconclusive: 20 µM
CCCN(CC)CC1COC2(CCC(C(C)(C)C)CC2)O1 (stereo not given)	inactive	
O=C(O)c1c(Cl)ccc2cc(Cl)cnc12		inconclusive: 20 µM
COP(=O)(NC(C)=O)SC (stereo not given)		inconclusive: 1.58 µM
CCNC(=O)NC(=O)C(C#N)=NOC		inconclusive: 20 µM
CCOC(=O)CC(SP(=S)(OC)OC)C(=O)OCC (stereo not given)	inactive	

3 entries from above in another layout:
SMILES | outcome | AC50
CCCOc1nn(C(=O)NS(=O)(=O)c2ccccc2C(=O)OC)c(=O)n1C | inactive | 
N#CN=C1SCCN1Cc1ccc(Cl)nc1 | inactive | 
CC(C)=CC1C(C(=O)OCN2C(=O)C3=C(CCCC3)C2=O)C1(C)C (stereo not given) |  | inconclusive: 0.0174 µM

More entries:

SMILES	outcome	AC50
COC(=O)N(OC)c1ccccc1COc1ccn(-c2ccc(Cl)cc2)n1	inactive	
CCNc1nc(Cl)nc(NC(C)C)n1	inactive	
CC1=NNC(=O)N(/N=C/c2cccnc2)C1	inactive	
CNC(=O)/C=C(\C)OP(=O)(OC)OC		inconclusive: 0.00117 µM
Cc1nn(-c2cc(NS(C)(=O)=O)c(Cl)cc2Cl)c(=O)n1C(F)F		inconclusive: 20 µM
CCC(C)n1c(=O)[nH]c(C)c(Br)c1=O (stereo not given)		inconclusive: 24.2 µM
CCC(=O)Nc1ccc(Cl)c(Cl)c1		inconclusive: 20 µM
CCOP(=S)(OCC)SCn1c(=O)oc2cc(Cl)ccc21		inconclusive: 20 µM
CC(C)Nc1nc(Cl)nc(NC(C)C)n1		inconclusive: 20 µM
Cc1ccccc1CO[C@@H]1C[C@@]2(C(C)C)CC[C@]1(C)O2		inconclusive: 20 µM
O=S(=O)(O)C(F)(F)C(F)(F)C(F)(F)C(F)(F)C(F)(F)C(F)(F)C(F)(F)C(F)(F)F	inactive	
CCCCSP(=O)(SCCCC)SCCCC		inconclusive: 1.9 µM
CCc1cccc(C)c1N(C(=O)CCl)C(C)COC (stereo not given)		inconclusive: 20 µM
COP(=O)(OC)OC=C(Cl)Cl	inactive	
N#CSCSC#N	inactive	
CC1=C(C(=O)Nc2ccccc2)SCCO1		inconclusive: 31 µM
CCC(C)Nc1c([N+](=O)[O-])cc(C(C)(C)C)cc1[N+](=O)[O-] (stereo not given)	inactive	
Cc1ccc(N=CN(C)C=Nc2ccc(C)cc2C)c(C)c1		inconclusive: 20 µM
O=P(O)(O)CCCl	inactive	
COc1cc(OC)nc(NC(=O)NS(=O)(=O)c2cc(NC=O)ccc2C(=O)N(C)C)n1	inactive	
